Data: PubChem BioAssay AID1508600 (Functional Genomics Laboratory (NCATS/FGL), 2020)
The whole screen tested about 53,000 sequences, of which about 3,700 (7%) were called active.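 How the source made its calls: active means gene knockdowns whose robust z-score for IL-1 alpha signal is at least 2 or at most -2, so actives lie on both sides; inactive means the rest.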 The list shows a part of the results.

Assay: Components of the Cytosolic LPS Sensing Pathway: Gene Identification via Genome-wide siRNA Screen;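 further: robust z of the log signal after scaling to non-targeting control siRNA wells of the plate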
Details: RAW264.7 macrophages, IL-1a HTRF, actives lie on both sides, screened at 100 nM (by protocol), cells primed 5 h with Pam3CSK4 first
How it was run: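 Mouse macrophage line RAW264.7 is transfected with siRNA (100 nM final), grown 48h, primed with TLR ligand Pam3CSK4 5 h and given intracellular LipidA 24 h. IL-1a in supernatant is read by HTRF and viability by luminescence.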

Row | Sequence | z-score
1 | GGGAUUUAAAGCCAACUUGTT against Sfpq | inactive: 0.62
2 | GGACUAAAUAGGUUUACCATT against Alx1 | inactive: 1.26
3 | GGUUUUCAAACCCUUGUGGTT against Rnf44 | inactive: 1.44
4 | GGAAUUCAACUUCUUCAGUTT against Cxcr1 | inactive: 0.489
5 | GGUUUGAAAGGAGAAAGAGTT against Col4a6 | inactive: 0.366
6 | GGAGUUUCUCUGAUGAUGGTT against H2ac6 | inactive: 0.382
7 | GGUGGAGAGUGAACAACAATT against Tpr | inactive: -1.25
8 | CGGCUUCUCUCUUUACACATT against Fosb | active: 2.51
9 | GGACAACGUGCUCAUUAGUTT against Zfp709 | inactive: 0.0713
10 | CCAAGCCUAAUAAAAUUCCTT against Lsr | inactive: 0.867
11 | GGAUUUGGCUACAAAAACATT against Ppib | inactive: 0.648
12 | CCUUAACUAUGGAGGAGUUTT against Rims4 | inactive: -0.467
13 | GGAGAAAAAUCUAUUACCUTT against Ano4 | inactive: -1.94
14 | GCCGCAUAAUCAGAAAGGCTT against Pipox | inactive: 0.748
15 | GGUAAGAGGAUCCAAGGUGTT against Fam131a | inactive: 0.0909
16 | GCAUUGGCAGACCCGAGUUTT against Pir | inactive: 0.238
17 | GGUACCUCUCAGAUUAAGUTT against Metap1 | inactive: 0.642
18 | CCAGAAUGUAAACUUGGUCTT against Trpv6 | inactive: 0.0508
19 | GCUUGAACCUCAACACCAATT against Gpi1 | inactive: 0.552
20 | CCCGAGAUACAAAAUCAUUTT against Rcan3 | inactive: 0.641
21 | GGAUUAGCUCUACAGAAGGTT against Olfr1031 | inactive: 1.67
22 | CGAAAACCACAGGUUUCUGTT against Col5a1 | inactive: 1.3
23 | GGAGAAGAUGAUUAAGACCTT against Anp32b | inactive: 0.51
24 | CGGGUAUCAUGUACUACCUTT against Slc6a9 | inactive: 0.404
25 | CCAACAUUCACACAUCUGATT against Syngr2 | inactive: -1.4
26 | CCUCAUUCAGGGAGUUCCATT against 2200002J24Rik | inactive: -1.52
27 | GGUGAUGAAAUUUAUUGAGTT against Gpn1 | inactive: -0.127
28 | GGUUAAUCUUAACAACAUCTT against Tmod1 | inactive: 0.266
29 | GUGGUGGUGGAAGACAUAATT against Hdhd3 | inactive: 1.17
30 | GGAACAAAGGCUGAUCCAGTT against Chrnd | inactive: -1.28

An excerpt of these results, in markdown:

| Row | Sequence | z-score |
| --- | --- | --- |
| 7 | GGUGGAGAGUGAACAACAATT against Tpr | inactive: -1.25 |
| 8 | CGGCUUCUCUCUUUACACATT against Fosb | active: 2.51 |
| 9 | GGACAACGUGCUCAUUAGUTT against Zfp709 | inactive: 0.0713 |
| 10 | CCAAGCCUAAUAAAAUUCCTT against Lsr | inactive: 0.867 |
| 11 | GGAUUUGGCUACAAAAACATT against Ppib | inactive: 0.648 |
| 12 | CCUUAACUAUGGAGGAGUUTT against Rims4 | inactive: -0.467 |
| 13 | GGAGAAAAAUCUAUUACCUTT against Ano4 | inactive: -1.94 |
